Results: the supplement of paper PMC10849652
This is one part of the list.

Protein sequences, listed by entry. Tags and fused reporters are not part of them. Lines headed by an entry give the natural chain unless they say otherwise; changes in a name come on top.
UniProt P31939: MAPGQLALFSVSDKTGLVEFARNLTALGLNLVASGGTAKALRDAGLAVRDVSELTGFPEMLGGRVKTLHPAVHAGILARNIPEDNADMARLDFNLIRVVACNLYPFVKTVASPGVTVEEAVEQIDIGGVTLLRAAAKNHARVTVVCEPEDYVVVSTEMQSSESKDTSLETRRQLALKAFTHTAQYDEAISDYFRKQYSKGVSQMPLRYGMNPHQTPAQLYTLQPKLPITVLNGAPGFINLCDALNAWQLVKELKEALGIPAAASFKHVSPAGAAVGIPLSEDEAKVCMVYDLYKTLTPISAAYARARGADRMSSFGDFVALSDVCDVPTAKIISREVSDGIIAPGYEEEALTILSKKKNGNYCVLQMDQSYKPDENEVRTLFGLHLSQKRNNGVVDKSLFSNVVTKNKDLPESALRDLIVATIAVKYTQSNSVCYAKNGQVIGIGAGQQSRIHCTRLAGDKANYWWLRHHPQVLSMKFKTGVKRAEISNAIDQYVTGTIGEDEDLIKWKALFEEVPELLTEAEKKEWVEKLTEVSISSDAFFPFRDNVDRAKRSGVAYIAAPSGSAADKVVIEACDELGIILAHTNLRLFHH
UniProt Q9UII2: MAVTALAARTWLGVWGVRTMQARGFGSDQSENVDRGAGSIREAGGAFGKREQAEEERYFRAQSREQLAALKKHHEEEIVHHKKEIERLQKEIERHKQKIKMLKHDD
UniProt P48047: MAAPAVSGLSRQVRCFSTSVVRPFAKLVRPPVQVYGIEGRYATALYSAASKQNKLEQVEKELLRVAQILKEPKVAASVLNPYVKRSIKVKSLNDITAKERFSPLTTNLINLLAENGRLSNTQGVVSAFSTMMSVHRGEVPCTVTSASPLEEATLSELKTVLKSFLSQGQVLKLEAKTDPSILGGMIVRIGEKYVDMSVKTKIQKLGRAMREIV
UniProt P56385: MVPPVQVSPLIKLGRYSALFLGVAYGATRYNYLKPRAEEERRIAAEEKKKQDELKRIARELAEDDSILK
UniProt Q96IX5: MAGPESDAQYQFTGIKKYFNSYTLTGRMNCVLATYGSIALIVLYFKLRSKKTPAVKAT
UniProt P98196: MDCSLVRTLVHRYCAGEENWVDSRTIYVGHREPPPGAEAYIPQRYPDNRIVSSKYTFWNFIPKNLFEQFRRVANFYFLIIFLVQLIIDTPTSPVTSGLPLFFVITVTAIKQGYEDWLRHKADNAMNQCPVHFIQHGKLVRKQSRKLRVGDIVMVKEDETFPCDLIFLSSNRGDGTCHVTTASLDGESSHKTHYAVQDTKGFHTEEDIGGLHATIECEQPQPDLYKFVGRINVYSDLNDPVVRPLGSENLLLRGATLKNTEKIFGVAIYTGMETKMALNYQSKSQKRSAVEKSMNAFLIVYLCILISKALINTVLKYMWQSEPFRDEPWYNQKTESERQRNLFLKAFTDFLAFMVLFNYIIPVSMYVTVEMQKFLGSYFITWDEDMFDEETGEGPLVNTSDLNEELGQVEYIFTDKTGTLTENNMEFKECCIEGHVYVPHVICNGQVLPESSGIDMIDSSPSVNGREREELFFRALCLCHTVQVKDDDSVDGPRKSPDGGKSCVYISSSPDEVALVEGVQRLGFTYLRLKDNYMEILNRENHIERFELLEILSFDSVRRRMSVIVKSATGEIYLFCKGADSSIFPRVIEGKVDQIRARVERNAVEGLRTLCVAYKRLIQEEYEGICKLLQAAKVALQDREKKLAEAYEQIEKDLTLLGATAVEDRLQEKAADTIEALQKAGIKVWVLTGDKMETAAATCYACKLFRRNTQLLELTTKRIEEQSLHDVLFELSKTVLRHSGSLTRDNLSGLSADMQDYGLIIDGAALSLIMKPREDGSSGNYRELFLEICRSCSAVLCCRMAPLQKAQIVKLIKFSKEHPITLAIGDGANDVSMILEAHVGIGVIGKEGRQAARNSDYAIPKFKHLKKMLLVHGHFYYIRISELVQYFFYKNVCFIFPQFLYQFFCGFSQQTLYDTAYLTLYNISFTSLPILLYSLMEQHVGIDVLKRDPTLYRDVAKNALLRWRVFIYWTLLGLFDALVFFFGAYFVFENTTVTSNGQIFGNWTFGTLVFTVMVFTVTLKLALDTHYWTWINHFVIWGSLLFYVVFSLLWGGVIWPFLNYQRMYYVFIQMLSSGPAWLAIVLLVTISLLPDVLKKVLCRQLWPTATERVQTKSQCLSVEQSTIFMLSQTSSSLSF
UniProt O00244: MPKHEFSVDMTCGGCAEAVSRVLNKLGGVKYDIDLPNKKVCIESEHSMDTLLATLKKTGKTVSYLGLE
UniProt O14965: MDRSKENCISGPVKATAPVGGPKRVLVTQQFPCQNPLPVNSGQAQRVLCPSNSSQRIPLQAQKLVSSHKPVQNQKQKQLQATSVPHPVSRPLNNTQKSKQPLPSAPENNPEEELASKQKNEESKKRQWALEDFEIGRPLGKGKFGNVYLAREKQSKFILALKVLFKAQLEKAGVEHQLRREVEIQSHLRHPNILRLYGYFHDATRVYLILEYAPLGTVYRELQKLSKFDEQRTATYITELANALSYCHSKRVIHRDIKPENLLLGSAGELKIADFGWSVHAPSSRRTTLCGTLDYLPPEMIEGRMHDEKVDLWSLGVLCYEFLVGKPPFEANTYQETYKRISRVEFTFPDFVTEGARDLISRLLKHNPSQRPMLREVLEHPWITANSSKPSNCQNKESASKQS
UniProt Q9BYG0: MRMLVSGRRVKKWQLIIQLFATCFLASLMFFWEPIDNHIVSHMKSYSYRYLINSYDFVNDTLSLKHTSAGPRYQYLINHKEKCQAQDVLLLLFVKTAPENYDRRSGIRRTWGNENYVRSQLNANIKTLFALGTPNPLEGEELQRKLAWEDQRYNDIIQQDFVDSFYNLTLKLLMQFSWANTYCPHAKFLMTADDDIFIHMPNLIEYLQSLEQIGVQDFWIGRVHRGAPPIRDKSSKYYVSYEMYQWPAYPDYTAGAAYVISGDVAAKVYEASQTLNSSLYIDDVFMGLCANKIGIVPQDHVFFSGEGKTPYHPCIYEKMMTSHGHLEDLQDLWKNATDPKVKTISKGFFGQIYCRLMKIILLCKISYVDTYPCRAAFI
UniProt P30049: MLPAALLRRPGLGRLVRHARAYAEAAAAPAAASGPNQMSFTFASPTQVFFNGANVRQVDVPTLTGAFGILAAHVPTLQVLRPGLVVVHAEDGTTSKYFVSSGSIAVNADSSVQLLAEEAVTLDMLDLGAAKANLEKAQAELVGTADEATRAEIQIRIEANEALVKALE
UniProt Q8NBU5: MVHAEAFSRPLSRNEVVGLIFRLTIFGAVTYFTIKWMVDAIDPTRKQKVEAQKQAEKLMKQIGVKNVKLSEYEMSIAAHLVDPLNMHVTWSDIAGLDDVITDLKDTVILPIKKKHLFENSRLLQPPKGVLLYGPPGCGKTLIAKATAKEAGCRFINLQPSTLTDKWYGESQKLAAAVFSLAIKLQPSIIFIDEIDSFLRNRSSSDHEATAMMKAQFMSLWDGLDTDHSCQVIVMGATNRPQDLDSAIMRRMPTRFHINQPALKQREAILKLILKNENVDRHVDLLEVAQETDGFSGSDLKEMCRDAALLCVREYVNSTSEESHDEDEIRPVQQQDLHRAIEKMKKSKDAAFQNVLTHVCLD
UniProt P54252: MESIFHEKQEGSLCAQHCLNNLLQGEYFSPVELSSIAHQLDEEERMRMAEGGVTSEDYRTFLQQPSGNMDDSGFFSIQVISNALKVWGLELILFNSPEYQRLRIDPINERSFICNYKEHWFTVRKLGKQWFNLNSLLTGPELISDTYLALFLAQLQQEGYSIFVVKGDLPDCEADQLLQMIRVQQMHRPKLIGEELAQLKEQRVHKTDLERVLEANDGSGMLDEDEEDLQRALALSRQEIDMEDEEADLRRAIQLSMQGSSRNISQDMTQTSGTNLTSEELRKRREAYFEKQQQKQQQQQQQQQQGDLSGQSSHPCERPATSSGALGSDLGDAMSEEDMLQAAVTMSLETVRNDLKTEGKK
UniProt Q96A05, whole entry, looked up: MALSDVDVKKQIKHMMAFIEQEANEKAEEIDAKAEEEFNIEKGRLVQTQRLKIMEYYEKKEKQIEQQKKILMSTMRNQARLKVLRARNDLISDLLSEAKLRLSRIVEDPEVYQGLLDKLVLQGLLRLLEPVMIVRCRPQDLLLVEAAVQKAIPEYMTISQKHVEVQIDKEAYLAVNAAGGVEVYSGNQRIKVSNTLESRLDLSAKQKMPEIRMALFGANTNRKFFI
UniProt Q7Z3C6: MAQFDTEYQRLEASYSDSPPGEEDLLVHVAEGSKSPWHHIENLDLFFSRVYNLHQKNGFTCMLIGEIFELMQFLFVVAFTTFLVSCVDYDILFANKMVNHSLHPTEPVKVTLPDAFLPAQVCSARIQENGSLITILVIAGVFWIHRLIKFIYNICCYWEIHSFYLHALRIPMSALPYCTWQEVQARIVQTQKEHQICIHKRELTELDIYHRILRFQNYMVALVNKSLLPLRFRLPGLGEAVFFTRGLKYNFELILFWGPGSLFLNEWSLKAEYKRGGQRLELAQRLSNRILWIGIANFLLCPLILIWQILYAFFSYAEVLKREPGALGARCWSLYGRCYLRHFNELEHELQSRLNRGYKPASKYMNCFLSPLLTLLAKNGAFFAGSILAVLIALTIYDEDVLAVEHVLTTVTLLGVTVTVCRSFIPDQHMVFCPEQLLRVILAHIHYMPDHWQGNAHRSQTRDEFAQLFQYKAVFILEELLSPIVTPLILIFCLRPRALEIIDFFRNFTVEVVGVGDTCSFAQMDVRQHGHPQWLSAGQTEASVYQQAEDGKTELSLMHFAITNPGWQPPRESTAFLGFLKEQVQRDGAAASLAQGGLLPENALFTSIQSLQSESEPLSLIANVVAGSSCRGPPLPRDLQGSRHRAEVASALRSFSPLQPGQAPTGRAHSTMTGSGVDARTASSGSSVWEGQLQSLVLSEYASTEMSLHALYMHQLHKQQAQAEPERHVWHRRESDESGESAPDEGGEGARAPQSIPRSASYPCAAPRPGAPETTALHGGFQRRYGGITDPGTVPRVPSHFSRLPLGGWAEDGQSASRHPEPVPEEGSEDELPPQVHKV
UniProt Q9NY97: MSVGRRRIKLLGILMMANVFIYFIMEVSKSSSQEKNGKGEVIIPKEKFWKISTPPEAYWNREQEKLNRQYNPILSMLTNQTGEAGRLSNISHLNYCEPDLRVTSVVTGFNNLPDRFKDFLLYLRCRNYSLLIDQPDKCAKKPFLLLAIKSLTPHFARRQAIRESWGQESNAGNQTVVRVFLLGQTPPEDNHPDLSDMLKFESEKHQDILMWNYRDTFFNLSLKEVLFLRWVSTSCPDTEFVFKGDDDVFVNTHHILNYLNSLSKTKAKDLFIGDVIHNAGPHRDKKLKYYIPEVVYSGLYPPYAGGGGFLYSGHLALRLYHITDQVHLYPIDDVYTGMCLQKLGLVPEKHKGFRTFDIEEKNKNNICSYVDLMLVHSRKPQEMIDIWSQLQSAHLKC
UniProt Q9HD20: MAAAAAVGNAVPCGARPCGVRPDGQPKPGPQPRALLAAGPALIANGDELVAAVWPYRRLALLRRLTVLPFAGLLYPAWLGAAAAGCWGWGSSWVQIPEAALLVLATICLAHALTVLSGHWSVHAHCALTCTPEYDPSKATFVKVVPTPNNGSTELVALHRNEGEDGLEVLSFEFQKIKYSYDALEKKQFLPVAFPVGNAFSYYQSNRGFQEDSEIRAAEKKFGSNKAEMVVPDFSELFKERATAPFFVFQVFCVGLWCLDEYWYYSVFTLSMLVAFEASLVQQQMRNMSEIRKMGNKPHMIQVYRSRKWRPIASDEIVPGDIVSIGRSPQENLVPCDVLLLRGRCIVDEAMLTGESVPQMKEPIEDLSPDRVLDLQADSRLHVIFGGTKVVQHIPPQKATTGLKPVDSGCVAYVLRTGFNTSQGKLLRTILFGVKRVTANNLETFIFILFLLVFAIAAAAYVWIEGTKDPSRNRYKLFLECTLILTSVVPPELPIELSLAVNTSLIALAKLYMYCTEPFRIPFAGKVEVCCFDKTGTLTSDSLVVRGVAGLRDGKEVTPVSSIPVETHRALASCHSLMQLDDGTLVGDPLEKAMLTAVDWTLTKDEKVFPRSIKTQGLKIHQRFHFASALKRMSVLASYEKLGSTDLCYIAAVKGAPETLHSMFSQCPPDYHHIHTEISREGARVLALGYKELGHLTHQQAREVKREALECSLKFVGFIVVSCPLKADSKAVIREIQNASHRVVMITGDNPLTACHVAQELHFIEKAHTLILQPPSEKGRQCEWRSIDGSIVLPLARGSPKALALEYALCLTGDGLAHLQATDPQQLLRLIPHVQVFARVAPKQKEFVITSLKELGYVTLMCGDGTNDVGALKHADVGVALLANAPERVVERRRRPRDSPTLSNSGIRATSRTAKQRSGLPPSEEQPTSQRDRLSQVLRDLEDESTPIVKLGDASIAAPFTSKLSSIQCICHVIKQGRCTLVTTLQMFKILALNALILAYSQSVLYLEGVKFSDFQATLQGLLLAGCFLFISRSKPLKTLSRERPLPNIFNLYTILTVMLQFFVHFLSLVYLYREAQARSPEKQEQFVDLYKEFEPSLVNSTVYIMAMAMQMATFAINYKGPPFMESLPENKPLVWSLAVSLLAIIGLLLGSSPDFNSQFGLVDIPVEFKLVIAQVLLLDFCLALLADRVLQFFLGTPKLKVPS

Tests used:
Assay in all cases: log2 fold change, soluble protein after heating vs DMSO (PISA); higher = thermal stabilisation; K562 lysate, 10 uM; active = over 0.2 and 3.5 SD of the protein, either way, in both replicates (recomputed)
vemurafenib = compound: CCCS(=O)(=O)Nc1ccc(F)c(C(=O)c2c[nH]c3ncc(-c4ccc(Cl)cc4)cc23)c1F [vemurafenib]
Outline: (§1)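 Soluble protein was defined as the supernatant remaining after 21,000xg for 90 min, following pooling of heated aliquots and adjustment to 0.5% NP-40 at 4°C. Before that, crude K562 extract at 1 mg/mL protein in PBS pH 7.4 with 1 mM MgCl2 was treated with 10 μM compound for 30 min and heated for 3 min across 48°C-58°C. Quantification used TMTpro 16plex LC-MS/MS with channel sums equalised, and values are log-two fold changes in thermal stability relative to solvent controls from duplicates.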

[1] = compound: CCCS(=O)(=O)Nc1ccc(F)c(C(=O)c2c[nH]c3ncc(Cl)cc23)c1F
Outline: as §1

barasertib = compound: CCN(CCCOc1ccc2c(Nc3cc(CC(=O)Nc4cccc(F)c4)[nH]n3)ncnc2c1)CCOP(=O)(O)O [barasertib]
Outline: as §1

[2] = compound: CC[C@@H]1C(=O)N(C)c2cnc(Nc3ccc(C(=O)NC4CCN(C)CC4)cc3OC)nc2N1C1CCCC1
Outline: as §1

volasertib = compound: CC[C@@H]1C(=O)N(C)c2cnc(Nc3ccc(C(=O)N[C@H]4CC[C@H](N5CCN(CC6CC6)CC5)CC4)cc3OC)nc2N1C(C)C [volasertib]
Outline: as §1

[3] = compound: CCn1c(C(=O)N(C2CC2)C2CC2)cc2c3c(ncn3C)c(Nc3cc(C)n(C)n3)nc21
Outline: as §1

[4] = compound: CCn1cc(-c2ccnc3[nH]c(-c4cccc(CN(C)C)c4)cc23)c(-c2ccc(NC(=O)N(C)C)cc2)n1
Outline: as §1

[5] = compound: CN1CCC(CNc2ccc3ncc(-c4cccc(OC(F)(F)F)c4)n3n2)CC1
Outline: as §1

saracatinib = compound: CN1CCN(CCOc2cc(OC3CCOCC3)c3c(Nc4c(Cl)ccc5c4OCO5)ncnc3c2)CC1 [saracatinib]
Outline: as §1

sotrastaurin = compound: CN1CCN(c2nc(C3=C(c4c[nH]c5ccccc45)C(=O)NC3=O)c3ccccc3n2)CC1 [sotrastaurin]
Outline: as §1

Target | log2 fold change (vemurafenib) | log2 fold change [1] | log2 fold change (barasertib) | log2 fold change [2] | log2 fold change (volasertib) | log2 fold change [3] | log2 fold change [4] | log2 fold change [5] | log2 fold change (saracatinib) | log2 fold change (sotrastaurin)
ATIC (UniProt P31939) | inactive: 0.003 | inactive: 0.006 | inactive: -0.024 | inactive: -0.022 | inactive: -0.043 | inactive: 0.009 | inactive: 0.026 | inactive: -0.029 | inactive: -0.023 | inactive: -0.031
ATP5IF1 (UniProt Q9UII2) | inactive: 0.024 | inactive: -0.047 | inactive: -0.033 | inactive: 0.064 | inactive: 0.054 | inactive: -0.031 | inactive: 0.038 | inactive: 0.084 | inactive: -0.034 | inactive: -0.043
ATP5MF-PTCD1 (UniProt G3V325) | inactive: -0.003 | inactive: 0.01 | inactive: -0.054 | inactive: -0.051 | inactive: -0.027 | inactive: 0.06 | inactive: -0.077 | inactive: 0.024 | inactive: -0.038 | inactive: 0.023
ATXN7L2 (UniProt Q5T6C5) | inactive: 0.001 |  |  |  |  |  |  |  |  | 
ATP5PO (UniProt P48047) | inactive: -0.013 | inactive: -0.01 | inactive: -0.024 | inactive: 0.021 | inactive: 0.031 | inactive: 0.015 | inactive: 0.02 | inactive: -0.009 | inactive: -0.013 | inactive: -0.015
ATP5ME (UniProt P56385) | inactive: 0.031 | inactive: -0.011 | inactive: 0.007 | inactive: 0.021 | inactive: 0.007 | inactive: -0.002 | inactive: -0.044 | inactive: 0.033 | inactive: -0.009 | inactive: 0
AUH (UniProt Q13825) | inactive: 0.083 | inactive: -0.009 | inactive: 0.004 | inactive: 0.042 | inactive: -0.093 | inactive: 0 | inactive: 0.1 | inactive: 0 | inactive: -0.101 | inactive: 0.047
ATP5MD (UniProt Q96IX5) | inactive: -0.103 | inactive: -0.045 | inactive: -0.047 | inactive: -0.053 | inactive: 0.031 | inactive: 0.018 | inactive: -0.31 | inactive: 0.048 | inactive: 0.047 | inactive: -0.043
ATP11A (UniProt P98196) | inactive: -0.035 | inactive: -0.015 | inactive: 0.006 | inactive: 0.019 | inactive: 0.026 | inactive: 0 | inactive: -0.116 | inactive: 0.024 | inactive: -0.01 | inactive: 0.063
ATOX1 (UniProt O00244) | inactive: -0.003 | inactive: -0.006 | inactive: 0.092 | inactive: 0.028 | inactive: 0.034 | inactive: -0.054 | inactive: -0.092 | inactive: -0.034 | inactive: 0.056 | inactive: -0.036
AURKA (UniProt O14965) | inactive: 0.088 | inactive: 0.068 | active: 0.763 | inactive: -0.062 | inactive: -0.015 | inactive: -0.009 | active: 0.719 | inactive: 0.096 | inactive: 0.008 | inactive: 0.028
AURKAIP1 (UniProt Q9NWT8) | inactive: 0.043 | inactive: -0.124 | inactive: 0.055 | inactive: 0.071 | inactive: 0.043 | inactive: -0.129 | inactive: -0.027 | inactive: 0.129 | inactive: 0.023 | inactive: -0.055
B3GNT5 (UniProt Q9BYG0) | inactive: 0.217 | inactive: 0.143 | inactive: -0.098 | inactive: 0.232 | inactive: -0.055 | inactive: -0.045 | inactive: -0.026 | inactive: -0.105 | inactive: 0.066 | 
ATP2C1 isoform 7 (UniProt P98194) | inactive: 0.135 | inactive: 0.036 | inactive: 0.037 | inactive: 0.076 | inactive: 0.011 | inactive: 0.459 | inactive: -0.024 | inactive: 0.032 | inactive: 0.06 | inactive: -0.032
ATP1A1 (UniProt P05023) | inactive: -0.021 | inactive: -0.006 | inactive: -0.034 | inactive: 0.031 | inactive: 0.025 | inactive: -0.015 | inactive: 0.057 | inactive: 0 | inactive: -0.021 | inactive: -0.038
ATP5F1D (UniProt P30049) | inactive: 0.08 | inactive: -0.032 | inactive: 0.188 | inactive: -0.001 | inactive: 0.028 | inactive: 0.037 | inactive: -0.101 | inactive: -0.008 | inactive: -0.04 | inactive: -0.003
ATF7 isoform 6 (UniProt P17544) | inactive: 0.06 | inactive: -0.071 | inactive: -0.132 | inactive: 0.019 | inactive: 0.005 | inactive: 0.047 | inactive: 0.181 | inactive: -0.1 | inactive: 0.072 | inactive: 0.018
ATAD1 (UniProt Q8NBU5) | inactive: 0.052 | inactive: -0.072 | inactive: -0.008 | inactive: 0.024 | inactive: -0.018 | inactive: -0.041 | inactive: -0.04 | inactive: -0.03 | inactive: -0.031 | inactive: 0.06
ATXN3 isoform 1 (UniProt P54252) | inactive: -0.029 | inactive: -0.002 | inactive: 0.042 | inactive: -0.01 | inactive: -0.032 | inactive: -0.034 | inactive: 0.058 | inactive: -0.025 | inactive: 0.057 | inactive: 0.027
ATP6V1E2 (UniProt Q96A05) | inactive: 0.033 | inactive: 0 | inactive: -0.008 | inactive: 0.095 | inactive: 0.015 | inactive: 0.023 | inactive: -0.113 | inactive: 0.081 | inactive: 0.017 | inactive: -0.021
ATP2A2 (UniProt P16615) | inactive: -0.007 | inactive: -0.014 | inactive: 0.056 | inactive: -0.005 | inactive: -0.002 | inactive: 0.016 | inactive: -0.047 | inactive: -0.018 | inactive: 0.015 | inactive: 0.018
ATG9A (UniProt Q7Z3C6) | inactive: 0.053 | inactive: 0.022 | inactive: 0.018 | inactive: 0.029 | inactive: -0.037 | inactive: 0.001 | inactive: -0.076 | inactive: -0.01 | inactive: 0 | inactive: 0.046
ATG2A isoform 3 (UniProt Q2TAZ0) | inactive: -0.033 | inactive: 0.019 | inactive: 0.045 | inactive: -0.018 | inactive: -0.006 | inactive: 0.009 | inactive: 0.056 | inactive: -0.19 | inactive: 0.024 | inactive: 0.067
ATXN2 (UniProt Q99700) | inactive: 0.007 | inactive: -0.004 | inactive: 0.012 | inactive: 0.057 | inactive: 0.001 | inactive: 0.022 | inactive: 0.005 | inactive: -0.03 | inactive: -0.014 | inactive: 0.052
ATXN2L isoform 3 (UniProt Q8WWM7) | inactive: 0.005 | inactive: -0.011 | inactive: -0.015 | inactive: 0.045 | inactive: -0.012 | inactive: 0.003 | inactive: -0.047 | inactive: 0.024 | inactive: -0.004 | inactive: 0.028
B3GNT2 (UniProt Q9NY97) | inactive: 0.039 | inactive: 0.012 | inactive: -0.077 | inactive: 0.052 | inactive: -0.072 | inactive: -0.032 | inactive: -0.098 | inactive: 0.067 | inactive: 0.025 | inactive: -0.004
ATP13A1 (UniProt Q9HD20) | inactive: -0.006 | inactive: 0.013 | inactive: -0.006 | inactive: 0.023 | inactive: -0.036 | inactive: 0.067 | inactive: 0.004 | active: -0.343 | inactive: 0.012 | inactive: -0.012
ATXN2 (UniProt F8WB05) | inactive: -0.153 | inactive: -0.024 | inactive: 0.057 | inactive: -0.013 | inactive: -0.087 | inactive: -0.005 | inactive: 0.094 | inactive: -0.004 | inactive: 0.05 | inactive: 0.086

Two entries from above in another layout.
Target	log2 fold change (vemurafenib)	log2 fold change [1]	log2 fold change (barasertib)	log2 fold change [2]	log2 fold change (volasertib)	log2 fold change [3]	log2 fold change [4]	log2 fold change [5]	log2 fold change (saracatinib)	log2 fold change (sotrastaurin)
ATP5IF1 (UniProt Q9UII2)	inactive: 0.024	inactive: -0.047	inactive: -0.033	inactive: 0.064	inactive: 0.054	inactive: -0.031	inactive: 0.038	inactive: 0.084	inactive: -0.034	inactive: -0.043
ATP5MF-PTCD1 (UniProt G3V325)	inactive: -0.003	inactive: 0.01	inactive: -0.054	inactive: -0.051	inactive: -0.027	inactive: 0.06	inactive: -0.077	inactive: 0.024	inactive: -0.038	inactive: 0.023
